Reference: article PMC10890935

The chains behind the UniProt entries cited, without tags or fusion partners. Where a name states a change or a piece, a line headed by the entry shows the natural chain unless it says otherwise.
UniProt A8LHT0: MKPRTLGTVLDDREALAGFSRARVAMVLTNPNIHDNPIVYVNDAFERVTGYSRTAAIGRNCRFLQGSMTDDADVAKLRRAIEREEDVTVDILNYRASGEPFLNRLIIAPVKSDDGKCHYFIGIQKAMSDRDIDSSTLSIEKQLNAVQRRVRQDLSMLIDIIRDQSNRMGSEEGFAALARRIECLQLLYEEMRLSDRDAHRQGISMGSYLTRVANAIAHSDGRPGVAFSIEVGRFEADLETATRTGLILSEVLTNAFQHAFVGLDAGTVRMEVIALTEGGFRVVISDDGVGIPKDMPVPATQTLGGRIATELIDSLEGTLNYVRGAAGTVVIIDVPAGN

Molecular target: Dshi_1135-Strep fusion protein (Dinoroseobacter shibae) (UniProt A8LHT0)
Test: pull-down; Strep-Tactin co-affinity purification of Dshi_1135-Strep from D. shibae after 0.125% formaldehyde cross-linking; cells grown under white light, blue light or dark; elution fractions on 15% SDS-PAGE, western blot with a PpsR specific antiserum

B1: PpsR repressor (protein, UniProt A8LQ24 1-476)
chain: MNTRERDFWDDRSAPRIAPEHFNEIVATAADLAIVLDLKGTVQSLVVNPLNPTIGRLDHWQKRDIREFLAEDSLAKLEKQLSAYQQGEVPPTDAIEVNHFDNANWEFPIRYTLHRTGDENLILMLGRDLRPVAELQHRLVKAQLALEKDYESHRDYETRYRVVMESTRDPLVLVDASSGRITDMNSAAAQVLGAEADALVGSLFGHEFNGLKRGELLDQLMGAATSDTNSSVTAHTKRTAKELKIQARLFRASGDKTLLCRLEGAGAQEVIAEELSEVLTLLFREGADAVVFTDPTGMIRNVNEAFLNLTDVGQLGDIKGKSLSDFLARGSVDLKVMMDNASRHGSMPVYSTRLESAYGSQLSVEISATHLEARQNGGFAFVFRDASRLEVVRDAAPVNGAVSGEAMQNVMELVGSAPLKDIVSATTDVVEKMCIETAVGLTRNNRVAAAEMLGLSRQSLYVKLRKYGLLNKGGDE
B1 was tested, and the binding was “binds”.

These are yes or no findings as the source states them, for the method shown. Binding seen in cells or lysates may run through a third protein. Binding can be weak; no strength is given.
